# Results from PubChem BioAssay AID504465 (National Center for Advancing Translational Sciences (NCATS), 2011).
# In all, about 2,100 compounds went through this assay and about 210 (10%) were called active. The inconclusive results got no clear call from the source; some entries with a clear call stand among them for comparison. Calls come from the whole dose curve; as a rule, active = well fitted inhibition curve with a large enough effect; inconclusive = small, poorly fitted or top-dose-only effect, or effect the other way; inactive = no such curve, though single readings can be large or run the other way. Potencies beside an inconclusive call are fits to weak or partial responses and may not hold up.
# Assay: IN Cell qHTS Assay for Inhibitors of the mTORC1 Signaling Pathway in MEF (Tsc2-/-, p53-/-) Cells: Sytravon; note: nearly all actives have a fitted effect of over 60% in size;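 for activity, negative = inhibition: plate controls were DMSO wells for no effect and 7.5 nM rapamycin full pathway inhibition for full effect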
# Conditions: phospho-rpS6 immunofluorescence, 24 h; activity, negative = inhibition: at 38.3 µM (top of the series)
# In short: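 Tsc2-/-, p53-/- MEFs (empty-vector) treated with compound 24 h at 37 degree Celsius, then fixed and stained for phospho-rpS6 Ser235/236 (Alexa-488) plus Hoechst. Reported as % positive cells, thresholds set against 7.5 nM rapamycin and DMSO wells.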
# Potency is the fitted concentration of half-maximal effect.
SMILES,Potency,"activity, negative = inhibition"
Cc1nn(C(C)C(=O)NC2CCCCC2)c(=O)c2c1sc1ccccc12 (centres undefined),"inconclusive: 0.104 µM [falling, full curve, poor fit]",
COc1cc(C(=O)CC2(O)C(=O)N(Cc3ccccc3Cl)c3ccccc32)cc(OC)c1OC (centres undefined),active: 0.147 µM,
COc1ccc(NC(=O)CSc2nncn3c2cc2oc(C)cc23)cc1OC,"inconclusive: 16.5 µM [falling, single point]",
COc1ccc(Nc2cc(C(=O)NCCCN3CCN(c4ccc(OC)cc4)CC3)c3ccccc3n2)cc1,inactive,
Nc1ccc(N2CCN(c3ncc(C(F)(F)F)cc3Cl)CC2)c(C(F)(F)F)c1,"inconclusive: 26.1 µM [falling, single point]",
O=C(NCc1ccc(Cl)cc1)C(=O)NCC(c1cccs1)S(=O)(=O)c1cccs1 (centres undefined),"inconclusive: 23.3 µM [falling, single point]",
Cc1ccc(CN2CCC(CNC(=O)Nc3ccc(Cl)cc3)C2)cc1 (centres undefined),inactive,
COc1ccc(/C=C/C(=O)Nc2ccc3nc4c(c(Nc5ccccc5OC)c3c2)CCCC4)cc1,active: 2.07 µM,
CC(C)COc1ccc(C(=O)NCC2(N3CCN(C)CC3)CCCCC2)cc1,active: 16.5 µM,
CCN1CCOC(=O)C1CC(=O)Nc1cc(C)ccc1OC (centres undefined),"inconclusive: 5.85 µM [activator, partial curve, poor fit]",
Cc1c(C(=O)OCCOc2ccccc2)[nH]c2c1C(=O)CC(c1ccccc1)C2 (centres undefined),"inconclusive: 18.5 µM [falling, single point]",
O=C(Cn1cc(SCc2cccc(C(F)(F)F)c2)c2ccccc21)N1CCCCCC1,inactive,
CCCCN(CC)CCCNC(=O)c1cn(CC(C)C)c(=O)c2c1c1ccccc1n2C,"inconclusive: 23.3 µM [falling, single point]",
Cc1cccc(Nc2nc(Nc3cccc(C)c3)nc(N3CCOCC3)n2)c1,active: 1.47 µM,
COc1ccccc1N(CC(=O)NCCSc1ccccc1)S(=O)(=O)c1ccc(C)cc1,"inconclusive: 3.29 µM [falling, full curve, poor fit]",
CCS(=O)(=O)c1c(S(=O)(=O)CC)c2cc(C(C)(C)C)ccn2c1C(=O)c1ccc(F)cc1,"inconclusive: 10.4 µM [falling, single point]",
CCOC(=O)c1cnc2c(Cl)c(Cl)ccc2c1Nc1ccc(N(C)C)cc1,"inconclusive: 4.65 µM [falling, single point]",
O=S(=O)(c1ccccc1)n1nc(-c2ccc(Cl)cc2)nc1NCc1ccc(F)cc1,inactive,
CCOc1ccc(C2=C(C(C)=O)Sc3nnc(C)n3N2C(C)=O)cc1,inactive,
CCC(Sc1nnc(C)n2c1cc1sccc12)C(=O)Nc1ccccc1F (centres undefined),"inconclusive: 26.1 µM [falling, single point]",
CCCCN(CC)CCCNC(=O)Cn1ncc2c3ccccc3n(Cc3ccccc3F)c2c1=O,"inconclusive: 4.65 µM [falling, single point]",
COc1ccc(-c2cc(C(F)(F)F)nc(S(C)(=O)=O)n2)cc1,active: 11.7 µM,

SMILES,Potency,"activity, negative = inhibition"
CC(C)c1ccc(NC(=O)CN2C(=O)COc3ccc(S(=O)(=O)N4CCCCC4)cc32)cc1,"inconclusive: 23.3 µM [falling, single point]",
CCN(CCCNC(=O)c1cc2cc3ccc(OC)cc3nc2s1)c1cccc(C)c1,"inconclusive: 0.0329 µM [falling, full curve, poor fit]",
Cc1cc(C)cc(NC(=O)c2cnn(-c3ccc(C)c(C)c3)c2C2CCNCC2)c1,"inconclusive: 7.36 µM [falling, partial curve]",
COc1cccc(NC(CNS(=O)(=O)c2ccc(Cl)cc2)c2ccccc2)c1 (centres undefined),"inconclusive: 0.0058 µM [falling, full curve, poor fit]",
C=CCc1ccc(OCc2ccc(C(=O)Nc3ccc(NC(C)=O)cc3)o2)c(OC)c1,inactive,
COc1ccc(Nc2c3c(nc4ccc(NC(=O)/C=C/c5cccc(OC)c5OC)cc24)CCCC3)cc1OC,"inconclusive: 4.65 µM [falling, full curve, poor fit]",
CCOc1ccc(OCC)c(NC(=O)Cn2nc(CC)n3c(cc4sccc43)c2=O)c1,inactive,
CCN(CC)CCNC(=O)c1ccc2nc(CCc3ccccc3)oc2c1,"inconclusive: 16.5 µM [falling, partial curve, poor fit]",
CCN(CC)CC(C)CNC(=O)c1cc(-c2ccc(Br)s2)nc2ccccc12 (centres undefined),"inconclusive: 10.4 µM [falling, single point]",
CCCCS(=O)(=O)c1oc(-c2cccs2)nc1S(=O)(=O)c1ccccc1,active: 0.585 µM,
COc1ccc(C2(Nc3cccc(C(=O)O)c3C)C(=O)c3ccccc3C2=O)cc1,inactive,
Fc1ccc(C(NCCc2ccccc2)c2nnc(-c3ccccc3Cl)o2)cc1 (centres undefined),inactive,
CCCS(=O)(=O)c1ncc(Cl)c(C(=O)Nc2c(C(=O)Nc3ccccc3)oc3ccccc23)n1,active: 2.07 µM,
COc1ccc(CNC(=O)C2=CC(c3cccc(OC)c3)=NS(=O)(=O)N2C)cc1,"inconclusive: 9.27 µM [falling, partial curve, poor fit]",
CCN1CCN(c2cc(C)c3cc(NC(=O)/C=C/c4ccc(C)cc4)ccc3n2)CC1,active: 5.21 µM,
CCOC(=O)N1CCc2c(sc3c2C(=O)NC(c2ccc(C(=O)OC)cc2)N3)C1 (centres undefined),inactive,
Cc1cccc(C)c1Nc1c(-c2ccsc2)nc2cccc(C)n12,inactive,
CCOc1ccc(/C=C/c2nc(C#N)c(N3CCC(C)CC3)o2)cc1,"inconclusive: 23.3 µM [falling, single point]",
COc1ccc(Nc2nc(Nc3ccc(OC)cc3OC)nc(N3CCOCC3)n2)c(OC)c1,active: 1.31 µM,
Cc1cccc2c(=O)cc(CSCC(=O)Nc3ccc(Cl)cc3)[nH]c12,"inconclusive: 14.7 µM [falling, single point]",
Cn1nc(-c2ccccc2F)c2cc(C(=O)Nc3cc(F)ccc3F)sc21,"inconclusive: 26.1 µM [falling, partial curve, poor fit]",
COc1cccc(C2C(C(=O)Nc3cccnc3)=C(C)Nc3nc(SCc4ccccc4)nn32)c1 (centres undefined),,inconclusive: 20.7% [activator]

# No new results follow: entries from further up.
SMILES,Potency,"activity, negative = inhibition"
CCOc1ccc(OCC)c(NC(=O)Cn2nc(CC)n3c(cc4sccc43)c2=O)c1,inactive,
CCN(CC)CCNC(=O)c1ccc2nc(CCc3ccccc3)oc2c1,"inconclusive: 16.5 µM [falling, partial curve, poor fit]",
CCN(CC)CC(C)CNC(=O)c1cc(-c2ccc(Br)s2)nc2ccccc12 (centres undefined),"inconclusive: 10.4 µM [falling, single point]",
